The test in a line: qHTS Assay for Lipid Storage Modulators in Drosophila S3 Cells.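 On cell number change: cells counted by Cell Tracker Red CMTPX staining in the red channel.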 The settings on record: BODIPY lipid droplet fluorescence, 18-24 h; for cell number change: measured here: cell count max response, cells fed with added oleic acid. The procedure, abridged:
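Drosophila S3 cells loaded with oleic acid (400 uM, as added) and compounds at several concentrations; lipid droplets imaged by 488-nm laser-scanning cytometry, 500–530 nm intensity and object ratio to cell channel. Percent activity normalized to 20 uM Triacsin C.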
(In general: In qHTS, concentration-response curves come from the screen itself.)

[1] abbreviates: measured here: lipid fluorescence (Fed channel) AC50, cells fed with added oleic acid.
The mark [2] stands for this setting: measured here: cell number channel AC50, cells fed with added oleic acid.

This is one part of the list. These are further read-outs of the screen, such as a control signal, another cell line or another target. No call is given for them. Most of these compounds were active or inconclusive in the main read-out, so they are no random draw. Words in brackets tell the shape of the fitted curve; partial curves, single points and poor fits give uncertain potencies.

For the molecule `CCCCN(CC)C(=O)CN1C(=O)c2ccccc2C1=O`, the cell number change was -6.95%. In addition, the concentration at half-maximal activity (AC50) under setting [1] is 6.51 µM [rising, single point].
Take `Cc1cccc(N2CCN(C(=O)CC(NC(=O)c3ccccc3Cl)c3ccccc3)CC2)c1C` (configuration not stated): the AC50 under setting [1] was 29.1 µM [falling, single point].
Consider `CCS(=O)(=O)N1Cc2ccccc2CC1C(=O)Nc1cccc(OC)c1` (configuration not stated), for which the AC50 under setting [1] was 6.51 µM [rising, partial curve, poor fit].
For `CNc1ccc(Br)cc(C(=O)/C=C/c2cc(OC)ccc2OC)c1=O`, the cell number change was -29.5%. Moreover, the AC50 under setting [1] was 25.9 µM [falling, partial curve, poor fit].
Consider `Cc1ccc(S(=O)(=O)N2CCCCC2C(=O)O)s1` (configuration not stated), for which the AC50 is 1.3 µM [rising, full curve] under setting [2] and 1.03 µM [rising, full curve] under setting [1].
On to `COC(=O)C(C(C)C)N1CCc2c(C)nc3c(C#N)cnn3c21` (configuration not stated), for which the cell number change is 4.31%. The AC50 under setting [2] was 0.00517 µM [falling, full curve, poor fit]. In addition, under setting [1], the AC50 is 0.00517 µM [falling, full curve, poor fit].
As for `CCCOc1ccc(C(=O)Nc2ccc(Cl)cn2)cc1`, the cell number change was -13.8%. Under setting [2], the AC50 is 0.92 µM [falling, full curve, poor fit]. In addition, the AC50 under setting [1] is 0.92 µM [falling, full curve].
Consider `COCCN(Cc1ccccc1)C(=O)Cc1ccc(OC)c(S(=O)(=O)N2CCOCC2)c1`, for which the half-maximal activity concentration (AC50) under setting [1] was 20.6 µM [rising, single point].
Turning to `CCOC(=O)CNC(=O)C12CC3CC(CC(C3)C1)C2`, the cell number change came out at 123%.
On to `Cc1noc(NS(=O)(=O)c2ccc(NC(=O)C(F)(F)F)cc2)c1C`, for which the cell number change stood at 20.1%. The concentration at half-maximal activity (AC50) under setting [1] was 29.1 µM [rising, partial curve].
With `C=C(C)C1CCC2(C(=O)O)CCC3(C)C(CCC4C5(C)C(C=O)C(O)C(C)(C)C5CCC43C)C12` (configuration not stated), the cell number change is -37.1%. The AC50 under setting [2] is 13 µM [falling, partial curve]. Under setting [1], the AC50 is 29.1 µM [falling, single point].
Consider `CCN1C=C(Cc2ccc(OC)cc2)C2=C(C1)C(c1ccc(OC)cc1)C(C#N)=C(N)O2` (configuration not stated), for which the cell number change was -0.197%.
For `C(C#CCCCCCCCCC[n+]1ccccc1)#CCCCCCCCCC[n+]1ccccc1`, the AC50 under setting [1] is 29.1 µM [falling, single point].
`O=[N+]([O-])c1ccc2[nH]c(O)c(N=Nc3ccc(F)cc3)c2c1`: the cell number change stood at 5.63%. The AC50 under setting [2] was 2.59 µM [rising, partial curve].
In the case of `CC1(C)CC(=O)C2=C(C1)N(c1ccc(F)cc1)C(=O)CC2c1ccsc1` (configuration not stated), the cell number change worked out at 1.05%. Moreover, the half-maximal activity concentration (AC50) under setting [1] is 29.1 µM [rising, single point].
Consider `CC(=O)c1ccc(N2CCC(c3cc(-c4ccc(Cl)cc4)n[nH]3)CC2)c([N+](=O)[O-])c1`, for which the cell number change is -16.4%. Moreover, the AC50 under setting [1] is 29.1 µM [falling, partial curve, poor fit].
Turning to `C=CCNC(=O)NC(=O)COC(=O)/C(C#N)=C/c1ccc(OC)cc1`, the cell number change worked out at 10.3%. Moreover, the AC50 under setting [1] is 0.259 µM [falling, full curve].
For the molecule `Cc1ccc(C(=O)N2CCN(Cc3ccc4c(c3)OCO4)CC2)cc1C`, the cell number change was 30.1%. Also, under setting [2], the AC50 was 18.4 µM [rising, partial curve, poor fit].
`Cc1sc2nc(C3CC3)nc(N3CCN(C(=O)c4ccccc4F)CC3)c2c1C`: the cell number change turned out to be 28.2%.
For `O=C(c1cc(-c2ccc(Br)cc2)nc2ccccc12)N1CCC1`, the cell number change worked out at 26%. Further, the half-maximal activity concentration (AC50) under setting [1] is 11.6 µM [rising, partial curve].
Consider `CCCCN(C(=O)c1ccc(COc2ccccc2)o1)c1c(N)n(CC(C)C)c(=O)[nH]c1=O`, for which the cell number change is 13.8%. In addition, the AC50 under setting [1] is 0.116 µM [rising, full curve, poor fit].
Turning to `O=C(Nc1ccccc1)c1sc2cc(C(F)(F)F)cnc2c1-c1cccs1`, the cell number change was determined as 53.7%. For the same molecule, the AC50 under setting [2] was 2.59 µM [rising, full curve]. Also, the half-maximal activity concentration (AC50) under setting [1] is 13 µM [rising, partial curve].
For the molecule `COc1cc(CN(C)c2ccc(S(=O)(=O)N3CCCC3)cn2)ccc1OC(F)F`, the cell number change stood at 36.9%. Moreover, under setting [2], the AC50 was 14.6 µM [rising, single point].
As to `OC(COCc1ccc(Cl)cc1)CN1CCCCC1` (configuration not stated), the cell number change was found to be 20.1%. Further, the half-maximal activity concentration (AC50) under setting [1] was 29.1 µM [falling, single point].
For `Cc1ccc(C(=O)NCC(=O)N/N=C/c2sccc2C)cc1[N+](=O)[O-]`, the cell number change came to 1.69%. Further, the concentration at half-maximal activity (AC50) under setting [1] is 0.291 µM [rising, partial curve].
Consider `C=CCn1c(O)c(N=NC(=O)C(O)c2ccccc2)c2ccccc21` (configuration not stated), for which the cell number change came to 29.3%. The concentration at half-maximal activity (AC50) under setting [1] is 0.259 µM [rising, full curve, poor fit].
For the molecule `COc1ccc(NC(=O)CN2C(=O)NC3(CC(C)CC(C)(C)C3)C2=O)cc1S(=O)(=O)N1CCCCC1` (configuration not stated), the cell number change is -1.04%. Under setting [1], the concentration at half-maximal activity (AC50) is 13 µM [rising, partial curve, poor fit].
Regarding `O=C(NC1CCCC1)C(c1ccccc1F)N(C(=O)c1csnn1)C1CC1` (configuration not stated), the cell number change was found to be 19.4%.
Turning to `FC(F)(F)c1cccc(Cc2noc(CN(Cc3ccccn3)CC3CCCO3)n2)c1` (configuration not stated), the cell number change was 14.2%. Besides, under setting [1], the concentration at half-maximal activity (AC50) is 20.6 µM [rising, partial curve].
With `COc1cccc(CC(=O)OCC(=O)N(C)CC(=O)Nc2ccc(Cl)c(C(F)(F)F)c2)c1`, the cell number change was -100%. Under setting [2], the AC50 is 29.1 µM [falling, single point].
For `Cc1cc(N2CCCC2=O)cc(C)c1S(=O)(=O)Nc1c(C)nn(C)c1C`, the cell number change is 21.7%. Moreover, the concentration at half-maximal activity (AC50) under setting [2] was 6.51 µM [rising, single point]. For the same molecule, the AC50 under setting [1] is 0.731 µM [falling, single point].
Take `O=C(Cn1cnc(S(=O)(=O)N2CCCC2)c1)Nc1ccc(OC(F)(F)F)cc1`: the cell number change was 41.6%. The AC50 under setting [2] was 14.6 µM [rising, partial curve, poor fit]. Further, the concentration at half-maximal activity (AC50) under setting [1] is 7.31 µM [rising, partial curve].
As for `Cc1cc(C)n(C(=O)c2cccc(S(=O)(=O)N3CCCC3)c2)n1`, the cell number change was found to be 12.5%. For the same molecule, the AC50 under setting [1] is 0.116 µM [falling, full curve, poor fit].
Take `N#C/C(=C/c1ccc(-c2cc(C(=O)O)cc(C(=O)O)c2)o1)c1nc2ccccc2s1`: the AC50 under setting [1] was 0.00461 µM [rising, full curve, poor fit].
Regarding `Cc1ccc(OCCn2cc(/C=C(\C#N)C(=O)NCC3CCCO3)c3ccccc32)cc1C` (configuration not stated), the cell number change was 2.33%.
In the case of `COc1cc(CNc2ncc(-c3ccc(Br)cc3)n2C)cc(OC)c1OC`, the cell number change is -31%. For the same molecule, under setting [2], the AC50 was 29.1 µM [falling, partial curve, poor fit]. Also, the AC50 under setting [1] is 29.1 µM [falling, single point].
Regarding `COc1ccc2c(c1)c(/C=N/Nc1ccc(C(=O)O)cc1)c(C)n2C`, the cell number change turned out to be 75.3%. Under setting [2], the AC50 is 25.9 µM [rising, single point]. In addition, the AC50 under setting [1] was 29.1 µM [rising, single point].
On to `CCN(CC)C(=O)C1CCCN(Cc2cccc(F)c2)C1` (configuration not stated), for which the cell number change was 11%.
As for `Cn1c(/C=C/c2ccc(Cl)cc2)c([N+](=O)[O-])c(=O)n(C)c1=O`, the cell number change was -9.91%. For the same molecule, the concentration at half-maximal activity (AC50) under setting [1] was 5.17 µM [falling, full curve].
`O=C(Oc1ccc(F)c(F)c1)c1ccc2c(=O)n3c(nc2c1)CCC3`: the AC50 under setting [1] is 32.6 µM [falling, single point].
Take `O=C(O)c1ccc(N/N=C/c2ccc(F)c(F)c2)cc1`: the cell number change was -31%. Further, the AC50 under setting [2] is 29.1 µM [falling, single point].
For `FC(F)(F)c1cc(-c2cccs2)nc(-n2cc(Cl)cn2)n1`, the cell number change amounted to 134%. The concentration at half-maximal activity (AC50) under setting [2] was 0.731 µM [rising, single point]. Further, the concentration at half-maximal activity (AC50) under setting [1] is 0.517 µM [rising, partial curve, poor fit].
For the molecule `CC(C)(C)NC(=O)COC(=O)c1ccccc1NC(=O)c1ccco1`, the AC50 under setting [2] was 0.184 µM [rising, full curve] and the AC50 under setting [1] was 0.116 µM [rising, full curve].
As to `Cc1ccc(C(=O)NCCNC(=O)c2cccnc2)cc1`, the cell number change is 5.26%. Under setting [1], the concentration at half-maximal activity (AC50) is 6.31 µM [falling, partial curve, poor fit].
Take `O=C(CCC(NC(=O)OCc1ccccc1)C(=O)O)OCc1ccccc1` (configuration not stated): the cell number change is 16.3%.
Regarding `CC12CC(c3ccccc3O1)N(C(=O)c1ccco1)C(=S)N2c1ccccc1` (configuration not stated), the cell number change stood at 21.9%. Also, the concentration at half-maximal activity (AC50) under setting [2] is 0.103 µM [rising, full curve, poor fit]. For the same molecule, the concentration at half-maximal activity (AC50) under setting [1] is 23.1 µM [falling, partial curve].
Consider `O=C(Nc1ccc(CN2CCOCC2)cc1)c1ccc(Br)o1`, for which the cell number change worked out at 15.2%.
On to `Cn1c(CC(=O)NNC(=O)c2ccc(F)cc2F)nc2ccccc21`, for which the cell number change was -18.7%. For the same molecule, the half-maximal activity concentration (AC50) under setting [1] is 2.31 µM [rising, partial curve, poor fit].
`Cc1ccc(-n2nnc3c(SCC(=O)NCc4ccco4)ncnc32)cc1`: the cell number change was -42%. In addition, under setting [2], the AC50 is 18.4 µM [falling, partial curve]. For the same molecule, under setting [1], the AC50 was 18.4 µM [falling, partial curve].
`O=C(/C=C/c1ccco1)NCC(=O)N/N=C/c1ccc(Cl)cc1`: the cell number change is -10.8%.
As to `COc1cccc(C2NC(=O)NC(C)=C2C(=O)Nc2cccc(C)c2C)c1` (configuration not stated), the cell number change was 1.62%. Under setting [1], the half-maximal activity concentration (AC50) is 0.0731 µM [rising, single point].
For the molecule `CCOC(=O)N1CCN(C(=O)c2ccc3c(=O)n(-c4ccc(F)cc4)c(=S)[nH]c3c2)CC1`, the cell number change was found to be 66.1%. Moreover, the half-maximal activity concentration (AC50) under setting [2] is 18.4 µM [rising, partial curve]. Under setting [1], the half-maximal activity concentration (AC50) was 29.1 µM [rising, single point].
Consider `O=C(NCc1ccccc1Cl)C1CCN(S(=O)(=O)c2cccs2)CC1`, for which the cell number change is 76.2%. For the same molecule, the AC50 under setting [2] is 1.64 µM [rising, full curve]. Besides, the AC50 under setting [1] is 4.61 µM [rising, partial curve].
As for `O=C(CN1CCCCCC1)Nc1ccc(F)c(F)c1`, the cell number change is 19.2%. For the same molecule, the AC50 under setting [1] is 0.0231 µM [rising, full curve, poor fit].
Turning to `Cc1cccc(OCc2nc(-c3nonc3N)no2)c1C`, the cell number change was -41.5%. The concentration at half-maximal activity (AC50) under setting [2] is 18.4 µM [falling, partial curve]. Moreover, the AC50 under setting [1] is 0.517 µM [rising, full curve, poor fit].
For `CCOC(=O)Cc1cc(=O)n2[nH]c(C)c(-c3ccc(OC)cc3)c2n1`, the cell number change came out at 162%.
In the case of `CC(C)(C)NC(=O)Cn1nnc(-c2cccs2)n1`, the cell number change is -79.2%. The half-maximal activity concentration (AC50) under setting [2] was 32.6 µM [falling, single point].

The term AC50 denotes the midpoint of the concentration-response curve, whichever way the signal moves. The low end stands for greater potency, the high end for weaker potency.

The values are drawn from PubChem BioAssay AID2685 (National Center for Advancing Translational Sciences (NCATS), 2010).
